Results deposited as PubChem BioAssay AID1159508 (Drosophila RNAi Screening Center, 2015)
The whole screen tested 812 reagents; this is a random part of them. 18 of all reagents (2.2%) were called active. 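Calls include both increased and decreased ATP; roughly one in four reagents has no third replicate value.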 Not given: the amount of reagent.

Purpose: 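Overall cell fitness after RNAi as a quality check of the library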
Cell system: Drosophila S2R+ cells
Reagents: long dsRNA against Drosophila genes
Time to read-out: 5 days
Detection: 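Total ATP per well measured by luciferase luminescence after 5 days, expressed as z-scores for each replicate and as their average across up to three replicates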
Scale: mean ATP z-score and ATP z-score: higher = more total ATP luminescence
Call rule: In these data the active calls have mean ATP z-score at about -2 or lower, or at about 2 or higher
Meaning of the calls: active = strong ATP change (up or down); inactive = no strong ATP change

Target gene | amplicon | mean ATP z-score | ATP z-score, replicate 1 | ATP z-score, replicate 2 | ATP z-score, replicate 3 | activity call
xmas (GeneID 44271) | DRSC22178 | -0.357 | -0.428 | -0.241 | – | inactive
xmas (GeneID 44271) | DRSC36378 | -0.706 | -0.81 | -0.627 | -0.544 | inactive
Rox8 (GeneID 42848) | DRSC16829 | 0.828 | 0.0739 | 1.08 | 1.17 | inactive
Rox8 (GeneID 42848) | DRSC29536 | 0.178 | -0.281 | 0.614 | – | inactive
eEF1gamma (GeneID 44791) | DRSC23655 | -0.347 | -0.353 | -0.335 | -0.287 | inactive
eEF1gamma (GeneID 44791) | DRSC35716 | 0.595 | -0.0896 | 0.585 | 1.18 | inactive
exu (GeneID 37345) | DRSC07615 | 0.461 | 0.326 | 0.537 | – | inactive
exu (GeneID 37345) | DRSC42214 | 0.378 | -0.0907 | 0.501 | 0.651 | inactive
CG6094 (GeneID 34446) | DRSC22705 | -1.02 | -1.09 | -1.04 | -0.738 | inactive
CG6094 (GeneID 34446) | DRSC29084 | -0.914 | -1.03 | -0.78 | -0.754 | inactive
mask (GeneID 50070) | DRSC25063 | 1.36 | 0.745 | 1.5 | 1.56 | inactive
mask (GeneID 50070) | DRSC32492 | 0.722 | 0.116 | 0.804 | 1.11 | inactive
MAN1 (GeneID 37838) | DRSC04342 | 0.273 | -0.00161 | 0.369 | 0.4 | inactive
MAN1 (GeneID 37838) | DRSC42681 | -0.666 | -0.943 | -0.574 | -0.353 | inactive
CG4612 (GeneID 37914) | DRSC04478 | -0.139 | -0.151 | -0.141 | -0.099 | inactive
CG4612 (GeneID 37914) | DRSC42486 | -0.589 | -0.555 | -0.548 | – | inactive
pea (GeneID 36561) | DRSC29708 | 0.0025 | -0.275 | 0.279 | – | inactive
pea (GeneID 36561) | DRSC31799 | -0.198 | -0.494 | -0.301 | 0.24 | inactive

Continued; the last 4 above are carried over.
Target gene | amplicon | mean ATP z-score | ATP z-score, replicate 1 | ATP z-score, replicate 2 | ATP z-score, replicate 3 | activity call
CG4612 (GeneID 37914) | DRSC04478 | -0.139 | -0.151 | -0.141 | -0.099 | inactive
CG4612 (GeneID 37914) | DRSC42486 | -0.589 | -0.555 | -0.548 | – | inactive
pea (GeneID 36561) | DRSC29708 | 0.0025 | -0.275 | 0.279 | – | inactive
pea (GeneID 36561) | DRSC31799 | -0.198 | -0.494 | -0.301 | 0.24 | inactive
eIF1 (GeneID 38398) | DRSC30115 | 0.517 | -0.252 | 0.543 | 1.16 | inactive
eIF1 (GeneID 38398) | DRSC42073 | 0.973 | 0.216 | 0.848 | 1.67 | inactive
shep (GeneID 38605) | DRSC09771 | -0.914 | -1.08 | -0.928 | -0.559 | inactive
shep (GeneID 38605) | DRSC34239 | 0.946 | 0.552 | 0.559 | 1.55 | inactive
Dcr-2 (GeneID 36993) | DRSC29436 | 0.872 | 0.452 | 1.18 | – | inactive
Dcr-2 (GeneID 36993) | DRSC32999 | -0.884 | -1.05 | -0.929 | -0.507 | inactive
SmB (GeneID 34426) | DRSC31868 | -0.384 | -0.691 | -0.339 | -0.0493 | inactive
SmB (GeneID 34426) | DRSC31869 | 0.35 | -0.118 | -0.00664 | 1.11 | inactive
mEFTu2 (GeneID 35681) | DRSC06163 | -0.279 | -0.609 | -0.232 | 0.0569 | inactive
mEFTu2 (GeneID 35681) | DRSC40411 | -1 | -1.06 | -0.819 | – | inactive
Trm1 (GeneID 34656) | DRSC02951 | 0.0875 | -0.441 | -0.317 | 1 | inactive
Trm1 (GeneID 34656) | DRSC42664 | 0.588 | 0.443 | 0.589 | 0.618 | inactive
Sas10 (GeneID 31447) | DRSC18355 | -0.202 | -0.59 | 0.212 | – | inactive
Sas10 (GeneID 31447) | DRSC36001 | -0.438 | -0.651 | -0.395 | -0.182 | inactive
Pcf11 (GeneID 36658) | DRSC23350 | 0.577 | 0.0484 | 0.696 | 0.876 | inactive
Pcf11 (GeneID 36658) | DRSC34272 | 1.71 | 1.47 | 1.73 | – | inactive
Larp7 (GeneID 44900) | DRSC27687 | -0.739 | -0.928 | -0.687 | -0.461 | inactive
Larp7 (GeneID 44900) | DRSC35881 | 0.68 | 0.311 | 0.317 | 1.28 | inactive
Nelf-A (GeneID 42520) | DRSC34528 | -1.4 | -1.41 | -1.26 | -1.25 | inactive
Nelf-A (GeneID 42520) | DRSC34529 | -0.085 | -0.448 | -0.106 | 0.315 | inactive
Nelf-E (GeneID 38982) | DRSC10567 | 0.828 | 0.507 | 0.655 | 1.16 | inactive
Nelf-E (GeneID 38982) | DRSC34575 | -0.696 | -0.906 | -0.638 | -0.41 | inactive
Mat89Ba (GeneID 41973) | DRSC14540 | -0.41 | -0.39 | -0.378 | – | inactive
Mat89Ba (GeneID 41973) | DRSC29166 | -0.525 | -0.624 | -0.509 | -0.339 | inactive
